Experimental findings from PMC7547737 are described below.

Amino acid sequences for entries named in this document (tags omitted).
UniProt P31749: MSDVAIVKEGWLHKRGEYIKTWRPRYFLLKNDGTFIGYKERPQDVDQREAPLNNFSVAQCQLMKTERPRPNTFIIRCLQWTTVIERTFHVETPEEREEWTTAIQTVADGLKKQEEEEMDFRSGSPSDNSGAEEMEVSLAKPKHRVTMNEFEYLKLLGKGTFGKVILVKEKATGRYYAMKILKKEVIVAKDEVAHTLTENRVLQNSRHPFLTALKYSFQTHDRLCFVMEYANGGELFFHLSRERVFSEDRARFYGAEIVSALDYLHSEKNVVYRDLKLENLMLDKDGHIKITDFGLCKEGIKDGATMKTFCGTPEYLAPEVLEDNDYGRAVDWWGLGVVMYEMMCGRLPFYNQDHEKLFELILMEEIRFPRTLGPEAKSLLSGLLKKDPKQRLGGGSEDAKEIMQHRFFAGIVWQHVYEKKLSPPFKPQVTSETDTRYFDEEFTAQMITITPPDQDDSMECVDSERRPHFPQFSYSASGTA
UniProt P62714: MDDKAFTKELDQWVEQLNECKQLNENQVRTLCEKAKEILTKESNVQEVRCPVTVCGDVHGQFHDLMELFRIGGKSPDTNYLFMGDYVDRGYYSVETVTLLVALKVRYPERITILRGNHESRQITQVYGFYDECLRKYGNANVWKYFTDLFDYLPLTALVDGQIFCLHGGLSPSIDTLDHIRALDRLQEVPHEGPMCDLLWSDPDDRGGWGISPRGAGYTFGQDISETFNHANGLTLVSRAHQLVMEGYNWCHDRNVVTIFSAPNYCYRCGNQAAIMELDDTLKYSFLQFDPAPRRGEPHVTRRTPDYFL

No constants are given. Whether binding was seen depends on the method and setting. In cells and extracts the contact can be indirect. Some results given as binding are weak or reduced against the parent protein; the word gives no strength.

For the test, the target named is FLAG-tagged wt AKT1 (UniProt P31749). Kind of test: co-IP; SK-Br3 cells transfected with FLAG-tagged AKT constructs, starved with U0126, treated with TZ 20 min, cross-linked with DSP; anti-FLAG magnetic beads, 3 h at 4 °C; Western blot, amounts normalised on precipitated protein and input. In general terms: A western blot detects proteins with antibodies after separation by electrophoresis.

As for “Ser/Thr-protein phosphatase 2A (PP2A)-catalytic subunit beta isoform (from UniProt P62714 1-309) (enzyme)”, the binding result was “binds”.
